Results from PubChem BioAssay (NCATS).
Inconclusive results, whose numbers are uncertain, are shown with a selection of clear calls. For part of these data: Potencies beside an inconclusive call are fits to weak or partial responses and may not hold up. Calls of active or inactive are those of the source. Calls follow the shape of the dose curve; as a rule, active = well fitted cell-killing curve with a large enough effect; inconclusive = small, poorly fitted or top-dose-only effect, or effect the other way; inactive = no such curve, though single readings can be large or run the other way.

Tests used:
[1] = Quantitative High-Throughput drug screen in 47 multiple myeloma cell lines against the NCATS MIPE library collection: EJM_DSMZ cell viability assay (AID 1918926; also: nearly all actives have a fitted effect of over 30% in size; also: potency is read from the fitted curve at half-maximal effect); details: EJM myeloma cell viability, CellTiter-Glo ATP, 48 h; series mostly up to 45.8 µM
Outline: (§1)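 Approved and investigational drugs from MIPE 4.0 were added by pin tool to 500 cells per well. After 48 hours at 37C, ATP-based CellTiter-Glo luminescence indicated remaining viability.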

[2] = Quantitative High-Throughput drug screen in 47 multiple myeloma cell lines against the NCATS MIPE library collection: ARP1_JJKsccF8 cell viability assay (AID 1918928; also: nearly all actives have a fitted effect of over 40% in size; also: potency is read from the fitted curve at half-maximal effect); details: ARP1 myeloma cells viability, CellTiter-Glo ATP, 48 h; viability: at 45.8 µM (top of the series)
Outline: (§2)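 Cell viability inhibition in this qHTS is measured via ATP content (CellTiter-Glo) after 48 h drug exposure at 37 °C. Wells hold 500 cells; DMSO-treated wells define 100% and medium-only wells 0%.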

[3] = Quantitative High-Throughput drug screen in 47 multiple myeloma cell lines against the NCATS MIPE library collection: ARD_JJKsccE7 cell viability assay (AID 1918929; also: potency is read from the fitted curve at half-maximal effect); details: ARD myeloma cell line viability, CellTiter-Glo, 48 h; viability: at 45.8 µM (top of the series)
Outline: as §1

[4] = Quantitative High-Throughput drug screen in 47 multiple myeloma cell lines against the NCATS MIPE library collection: Karpas620_DSMZ cell viability assay (AID 1918959); details: Karpas620 myeloma viability, CellTiter-Glo ATP luminescence, 48 h; viability (% of DMSO): at 45.8 µM (top of the series); also: nearly all actives have a fitted effect of over 30% in size; also: potency is read from the fitted curve at half-maximal effect
Outline: (§3)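 Relative luminescence from CellTiter-Glo served as the viability signal, referenced to DMSO-treated (100%) and cell-free medium (0%) controls. Treatment lasted 48 hours at 37C with 500 cells per well.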

[5] = Quantitative High-Throughput drug screen in 47 multiple myeloma cell lines against the NCATS MIPE library collection: KMM1_JCRB cell viability assay (AID 1918960); details: KMM1 myeloma viability, CellTiter-Glo ATP luminescence, 48 h; viability (% of DMSO): at 45.8 µM (top of the series); also: potency is read from the fitted curve at half-maximal effect; nearly all actives have a fitted effect of over 30% in size
Outline: as §2

[6] = Quantitative High-Throughput drug screen in 47 multiple myeloma cell lines against the NCATS MIPE library collection: Karpas417_ECACC cell viability assay (AID 1918961); details: Karpas417 myeloma viability, CellTiter-Glo ATP luminescence, 48 h; viability (% of DMSO): at 45.8 µM (top of the series); also: potency is read from the fitted curve at half-maximal effect
Outline: as §3

[7] = Quantitative High-Throughput drug screen in 47 multiple myeloma cell lines against the NCATS MIPE library collection: AMO1_DSMZ cell viability assay (AID 1918927; also: nearly all actives have a fitted effect of over 30% in size; also: potency is read from the fitted curve at half-maximal effect); details: AMO1 myeloma cells viability, CellTiter-Glo ATP luminescence, 48 h; series mostly up to 45.8 µM
Outline: as §1

[8] = Quantitative High-Throughput drug screen in 47 multiple myeloma cell lines against the NCATS MIPE library collection: Delta47_JCRB cell viability assay (AID 1918925; also: nearly all actives have a fitted effect of over 45% in size); details: Delta47 myeloma viability, CellTiter-Glo ATP, 48 h; viability (% of DMSO): at 45.8 µM (top of the series)
Outline: as §1

Row | SMILES | Potency [1] | Potency [2] | Potency [3] | Potency [4] | Potency [5] | Potency [6] | Potency [7] | Potency [8]
1 | CCC(=O)N1CCN(c2ccc(-n3c(=O)ccc4cnc5ccc(-c6cnc7ccccc7c6)cc5c43)cc2C(F)(F)F)CC1 | inconclusive: 0.0935 µM [cytotoxic, full curve] | inconclusive: 0.0132 µM [cytotoxic, full curve] | inconclusive: 0.187 µM [cytotoxic, full curve] | active: 0.0187 µM | inconclusive: 0.0526 µM [cytotoxic, partial curve, poor fit] | inconclusive: 0.187 µM [cytotoxic, full curve, poor fit] | – | –
2 | CCOC(=O)[C@@H](N)CCC(=O)N[C@@H](CSCc1ccccc1)C(=O)N[C@@H](C(=O)OCC)c1ccccc1 | inconclusive: 37.2 µM [cytotoxic, single point] | inactive | inconclusive: 37.2 µM [cytotoxic, partial curve, poor fit] | – | inconclusive: 26.4 µM [cytotoxic, single point] | inconclusive: 14.8 µM [cytotoxic, partial curve, poor fit] | inconclusive: 37.2 µM [cytotoxic, single point] | –
3 | CN(C)CCN(Cc1ccc(Cl)cc1)c1ccccn1 | inconclusive: 37.2 µM [cytotoxic, single point] | – | inactive | – | – | inconclusive: 2.35 µM [cytotoxic, partial curve, poor fit] | inconclusive: 37.2 µM [cytotoxic, single point] | –
4 | Oc1ccc(C2CNCCc3c2cc(O)c(O)c3Cl)cc1 (stereo not drawn) | inactive | inconclusive: 14.8 µM [cytotoxic, partial curve, poor fit] | – | – | – | inconclusive: 0.0015 µM [cytotoxic, full curve, poor fit] | inactive | –
5 | COc1ccc2c(c1)c(CC(=O)O)c(C)n2C(=O)c1ccc(Cl)cc1 | inconclusive: 20.9 µM [cytotoxic, partial curve] | – | – | inactive | – | inconclusive: 0.0053 µM [rising, full curve, poor fit] | inconclusive: 0.0026 µM [cytotoxic, full curve, poor fit] | –
6 | O=C1C(c2c(O)[nH]c3ccccc23)=Nc2ccccc21 | inconclusive: 1.18 µM [cytotoxic, partial curve] | – | inconclusive: 20.9 µM [cytotoxic, partial curve, poor fit] | – | inconclusive: 23.5 µM [cytotoxic, partial curve, poor fit] | inconclusive: 5.26 µM [rising, full curve, poor fit] | inconclusive: 20.9 µM [cytotoxic, partial curve] | –
7 | COC1CCC(C(=O)c2ccc3nc4c(cc3c2)CCCO4)CC1 (stereo not drawn) | inconclusive: 29.6 µM [cytotoxic, single point] | – | inconclusive: 33.2 µM [cytotoxic, single point] | active: 16.6 µM | inconclusive: 16.6 µM [cytotoxic, partial curve] | inconclusive: 20.9 µM [cytotoxic, partial curve, poor fit] | active: 18.7 µM | –
8 | CC(=O)[C@H]1CC[C@H]2[C@@H]3CC=C4C[C@@H](O)CC[C@]4(C)[C@H]3CC[C@]12C | inconclusive: 10.5 µM [cytotoxic, partial curve, poor fit] | inconclusive: 2.64 µM [cytotoxic, partial curve, poor fit] | inactive | – | – | inconclusive: 11.8 µM [rising, single point] | inactive | –
9 | COc1cc2c(cc1OC)C1CC(=O)C(CC(C)C)CN1CC2 (stereo not drawn) | – | inconclusive: 8.33 µM [cytotoxic, single point] | – | – | – | inactive | – | inactive
10 | O=c1[nH]nc(OCCCc2ccc(Cl)cc2)c(NCc2cccnc2)c1Br | active: 18.7 µM | active: 18.7 µM | inconclusive: 33.2 µM [cytotoxic, single point] | – | active: 18.7 µM | active: 4.69 µM | – | –

Retrieved by structure from the entries so far:
Row | SMILES | Potency [1] | Potency [2] | Potency [3] | Potency [4] | Potency [5] | Potency [6] | Potency [7] | Potency [8]
7 | COC1CCC(C(=O)c2ccc3nc4c(cc3c2)CCCO4)CC1 (stereo not drawn) | inconclusive: 29.6 µM [cytotoxic, single point] | – | inconclusive: 33.2 µM [cytotoxic, single point] | active: 16.6 µM | inconclusive: 16.6 µM [cytotoxic, partial curve] | inconclusive: 20.9 µM [cytotoxic, partial curve, poor fit] | active: 18.7 µM | –
5 | COc1ccc2c(c1)c(CC(=O)O)c(C)n2C(=O)c1ccc(Cl)cc1 | inconclusive: 20.9 µM [cytotoxic, partial curve] | – | – | inactive | – | inconclusive: 0.0053 µM [rising, full curve, poor fit] | inconclusive: 0.0026 µM [cytotoxic, full curve, poor fit] | –
